Data published in PMC6028525.
No constants are given. Whether binding was seen depends on the method and setting. Binding seen in cells or lysates may run through a third protein. Here binding means that the protein was enriched with, or labelled near, the bait; the list need not be complete.

Chains of the proteins cited; added tags and fusions are not shown. Lines headed by an entry give the natural chain unless they say otherwise; changes in a name come on top.
UniProt Q9VVM7: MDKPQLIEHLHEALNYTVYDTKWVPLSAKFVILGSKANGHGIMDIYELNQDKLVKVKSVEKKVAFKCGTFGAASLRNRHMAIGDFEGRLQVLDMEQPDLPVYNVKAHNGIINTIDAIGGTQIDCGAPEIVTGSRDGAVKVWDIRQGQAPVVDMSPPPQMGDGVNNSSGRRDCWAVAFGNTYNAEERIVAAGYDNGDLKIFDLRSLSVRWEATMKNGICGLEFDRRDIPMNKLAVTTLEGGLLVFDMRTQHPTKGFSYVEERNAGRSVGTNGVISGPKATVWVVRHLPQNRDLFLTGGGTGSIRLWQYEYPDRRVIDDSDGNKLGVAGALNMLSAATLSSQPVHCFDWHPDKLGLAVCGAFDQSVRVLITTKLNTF
UniProt A1ZBP5: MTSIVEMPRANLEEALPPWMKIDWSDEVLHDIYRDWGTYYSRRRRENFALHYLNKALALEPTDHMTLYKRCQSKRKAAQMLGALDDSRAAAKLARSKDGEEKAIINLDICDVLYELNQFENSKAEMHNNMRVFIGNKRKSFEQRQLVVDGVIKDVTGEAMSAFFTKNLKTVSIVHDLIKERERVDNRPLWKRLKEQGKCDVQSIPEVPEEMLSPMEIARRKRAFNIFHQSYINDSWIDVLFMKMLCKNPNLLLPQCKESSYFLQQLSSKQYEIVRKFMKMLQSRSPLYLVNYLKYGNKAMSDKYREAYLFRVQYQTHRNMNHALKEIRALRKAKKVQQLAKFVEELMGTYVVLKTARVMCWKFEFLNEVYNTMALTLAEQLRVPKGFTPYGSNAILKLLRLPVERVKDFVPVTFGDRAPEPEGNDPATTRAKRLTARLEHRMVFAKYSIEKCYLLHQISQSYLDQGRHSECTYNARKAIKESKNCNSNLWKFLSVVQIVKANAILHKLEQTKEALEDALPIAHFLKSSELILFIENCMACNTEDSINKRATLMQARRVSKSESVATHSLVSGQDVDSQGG
UniProt Q9VJY4: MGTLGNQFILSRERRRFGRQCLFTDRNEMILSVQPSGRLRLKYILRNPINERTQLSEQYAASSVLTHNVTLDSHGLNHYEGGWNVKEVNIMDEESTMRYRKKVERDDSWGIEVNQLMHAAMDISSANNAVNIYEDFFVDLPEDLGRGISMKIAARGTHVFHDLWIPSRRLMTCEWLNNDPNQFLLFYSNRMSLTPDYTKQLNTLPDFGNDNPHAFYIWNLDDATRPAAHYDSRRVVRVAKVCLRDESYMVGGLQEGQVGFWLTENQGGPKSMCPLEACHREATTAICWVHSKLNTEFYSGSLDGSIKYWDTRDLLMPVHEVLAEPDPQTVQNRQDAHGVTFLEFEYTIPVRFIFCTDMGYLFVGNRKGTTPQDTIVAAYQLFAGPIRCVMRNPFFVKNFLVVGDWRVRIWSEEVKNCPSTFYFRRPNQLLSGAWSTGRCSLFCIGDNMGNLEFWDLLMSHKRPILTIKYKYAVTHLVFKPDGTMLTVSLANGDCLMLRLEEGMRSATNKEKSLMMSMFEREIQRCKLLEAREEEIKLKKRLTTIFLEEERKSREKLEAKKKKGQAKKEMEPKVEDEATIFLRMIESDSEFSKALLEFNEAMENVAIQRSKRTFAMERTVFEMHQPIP
UniProt A1Z8T9: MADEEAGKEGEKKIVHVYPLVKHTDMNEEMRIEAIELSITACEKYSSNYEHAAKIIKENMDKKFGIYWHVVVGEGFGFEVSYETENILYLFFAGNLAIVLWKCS
UniProt Q0KI89: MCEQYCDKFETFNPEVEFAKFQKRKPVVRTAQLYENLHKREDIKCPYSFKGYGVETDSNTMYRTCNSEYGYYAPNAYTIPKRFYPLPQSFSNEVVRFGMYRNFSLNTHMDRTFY
UniProt Q9V3E9: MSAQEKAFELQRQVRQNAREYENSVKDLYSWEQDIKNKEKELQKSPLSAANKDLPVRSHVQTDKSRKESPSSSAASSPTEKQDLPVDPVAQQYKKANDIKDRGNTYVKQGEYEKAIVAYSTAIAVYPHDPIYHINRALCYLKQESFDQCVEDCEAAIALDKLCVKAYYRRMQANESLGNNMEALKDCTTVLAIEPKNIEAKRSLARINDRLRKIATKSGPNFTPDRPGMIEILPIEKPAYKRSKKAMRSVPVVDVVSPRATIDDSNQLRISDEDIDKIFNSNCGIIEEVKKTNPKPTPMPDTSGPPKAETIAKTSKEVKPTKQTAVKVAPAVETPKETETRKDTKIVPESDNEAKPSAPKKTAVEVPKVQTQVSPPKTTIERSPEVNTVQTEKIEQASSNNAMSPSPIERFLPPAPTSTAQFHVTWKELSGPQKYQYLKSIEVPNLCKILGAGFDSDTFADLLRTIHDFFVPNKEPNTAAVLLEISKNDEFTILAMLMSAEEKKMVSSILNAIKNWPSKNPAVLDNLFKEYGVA
UniProt Q7KVA7: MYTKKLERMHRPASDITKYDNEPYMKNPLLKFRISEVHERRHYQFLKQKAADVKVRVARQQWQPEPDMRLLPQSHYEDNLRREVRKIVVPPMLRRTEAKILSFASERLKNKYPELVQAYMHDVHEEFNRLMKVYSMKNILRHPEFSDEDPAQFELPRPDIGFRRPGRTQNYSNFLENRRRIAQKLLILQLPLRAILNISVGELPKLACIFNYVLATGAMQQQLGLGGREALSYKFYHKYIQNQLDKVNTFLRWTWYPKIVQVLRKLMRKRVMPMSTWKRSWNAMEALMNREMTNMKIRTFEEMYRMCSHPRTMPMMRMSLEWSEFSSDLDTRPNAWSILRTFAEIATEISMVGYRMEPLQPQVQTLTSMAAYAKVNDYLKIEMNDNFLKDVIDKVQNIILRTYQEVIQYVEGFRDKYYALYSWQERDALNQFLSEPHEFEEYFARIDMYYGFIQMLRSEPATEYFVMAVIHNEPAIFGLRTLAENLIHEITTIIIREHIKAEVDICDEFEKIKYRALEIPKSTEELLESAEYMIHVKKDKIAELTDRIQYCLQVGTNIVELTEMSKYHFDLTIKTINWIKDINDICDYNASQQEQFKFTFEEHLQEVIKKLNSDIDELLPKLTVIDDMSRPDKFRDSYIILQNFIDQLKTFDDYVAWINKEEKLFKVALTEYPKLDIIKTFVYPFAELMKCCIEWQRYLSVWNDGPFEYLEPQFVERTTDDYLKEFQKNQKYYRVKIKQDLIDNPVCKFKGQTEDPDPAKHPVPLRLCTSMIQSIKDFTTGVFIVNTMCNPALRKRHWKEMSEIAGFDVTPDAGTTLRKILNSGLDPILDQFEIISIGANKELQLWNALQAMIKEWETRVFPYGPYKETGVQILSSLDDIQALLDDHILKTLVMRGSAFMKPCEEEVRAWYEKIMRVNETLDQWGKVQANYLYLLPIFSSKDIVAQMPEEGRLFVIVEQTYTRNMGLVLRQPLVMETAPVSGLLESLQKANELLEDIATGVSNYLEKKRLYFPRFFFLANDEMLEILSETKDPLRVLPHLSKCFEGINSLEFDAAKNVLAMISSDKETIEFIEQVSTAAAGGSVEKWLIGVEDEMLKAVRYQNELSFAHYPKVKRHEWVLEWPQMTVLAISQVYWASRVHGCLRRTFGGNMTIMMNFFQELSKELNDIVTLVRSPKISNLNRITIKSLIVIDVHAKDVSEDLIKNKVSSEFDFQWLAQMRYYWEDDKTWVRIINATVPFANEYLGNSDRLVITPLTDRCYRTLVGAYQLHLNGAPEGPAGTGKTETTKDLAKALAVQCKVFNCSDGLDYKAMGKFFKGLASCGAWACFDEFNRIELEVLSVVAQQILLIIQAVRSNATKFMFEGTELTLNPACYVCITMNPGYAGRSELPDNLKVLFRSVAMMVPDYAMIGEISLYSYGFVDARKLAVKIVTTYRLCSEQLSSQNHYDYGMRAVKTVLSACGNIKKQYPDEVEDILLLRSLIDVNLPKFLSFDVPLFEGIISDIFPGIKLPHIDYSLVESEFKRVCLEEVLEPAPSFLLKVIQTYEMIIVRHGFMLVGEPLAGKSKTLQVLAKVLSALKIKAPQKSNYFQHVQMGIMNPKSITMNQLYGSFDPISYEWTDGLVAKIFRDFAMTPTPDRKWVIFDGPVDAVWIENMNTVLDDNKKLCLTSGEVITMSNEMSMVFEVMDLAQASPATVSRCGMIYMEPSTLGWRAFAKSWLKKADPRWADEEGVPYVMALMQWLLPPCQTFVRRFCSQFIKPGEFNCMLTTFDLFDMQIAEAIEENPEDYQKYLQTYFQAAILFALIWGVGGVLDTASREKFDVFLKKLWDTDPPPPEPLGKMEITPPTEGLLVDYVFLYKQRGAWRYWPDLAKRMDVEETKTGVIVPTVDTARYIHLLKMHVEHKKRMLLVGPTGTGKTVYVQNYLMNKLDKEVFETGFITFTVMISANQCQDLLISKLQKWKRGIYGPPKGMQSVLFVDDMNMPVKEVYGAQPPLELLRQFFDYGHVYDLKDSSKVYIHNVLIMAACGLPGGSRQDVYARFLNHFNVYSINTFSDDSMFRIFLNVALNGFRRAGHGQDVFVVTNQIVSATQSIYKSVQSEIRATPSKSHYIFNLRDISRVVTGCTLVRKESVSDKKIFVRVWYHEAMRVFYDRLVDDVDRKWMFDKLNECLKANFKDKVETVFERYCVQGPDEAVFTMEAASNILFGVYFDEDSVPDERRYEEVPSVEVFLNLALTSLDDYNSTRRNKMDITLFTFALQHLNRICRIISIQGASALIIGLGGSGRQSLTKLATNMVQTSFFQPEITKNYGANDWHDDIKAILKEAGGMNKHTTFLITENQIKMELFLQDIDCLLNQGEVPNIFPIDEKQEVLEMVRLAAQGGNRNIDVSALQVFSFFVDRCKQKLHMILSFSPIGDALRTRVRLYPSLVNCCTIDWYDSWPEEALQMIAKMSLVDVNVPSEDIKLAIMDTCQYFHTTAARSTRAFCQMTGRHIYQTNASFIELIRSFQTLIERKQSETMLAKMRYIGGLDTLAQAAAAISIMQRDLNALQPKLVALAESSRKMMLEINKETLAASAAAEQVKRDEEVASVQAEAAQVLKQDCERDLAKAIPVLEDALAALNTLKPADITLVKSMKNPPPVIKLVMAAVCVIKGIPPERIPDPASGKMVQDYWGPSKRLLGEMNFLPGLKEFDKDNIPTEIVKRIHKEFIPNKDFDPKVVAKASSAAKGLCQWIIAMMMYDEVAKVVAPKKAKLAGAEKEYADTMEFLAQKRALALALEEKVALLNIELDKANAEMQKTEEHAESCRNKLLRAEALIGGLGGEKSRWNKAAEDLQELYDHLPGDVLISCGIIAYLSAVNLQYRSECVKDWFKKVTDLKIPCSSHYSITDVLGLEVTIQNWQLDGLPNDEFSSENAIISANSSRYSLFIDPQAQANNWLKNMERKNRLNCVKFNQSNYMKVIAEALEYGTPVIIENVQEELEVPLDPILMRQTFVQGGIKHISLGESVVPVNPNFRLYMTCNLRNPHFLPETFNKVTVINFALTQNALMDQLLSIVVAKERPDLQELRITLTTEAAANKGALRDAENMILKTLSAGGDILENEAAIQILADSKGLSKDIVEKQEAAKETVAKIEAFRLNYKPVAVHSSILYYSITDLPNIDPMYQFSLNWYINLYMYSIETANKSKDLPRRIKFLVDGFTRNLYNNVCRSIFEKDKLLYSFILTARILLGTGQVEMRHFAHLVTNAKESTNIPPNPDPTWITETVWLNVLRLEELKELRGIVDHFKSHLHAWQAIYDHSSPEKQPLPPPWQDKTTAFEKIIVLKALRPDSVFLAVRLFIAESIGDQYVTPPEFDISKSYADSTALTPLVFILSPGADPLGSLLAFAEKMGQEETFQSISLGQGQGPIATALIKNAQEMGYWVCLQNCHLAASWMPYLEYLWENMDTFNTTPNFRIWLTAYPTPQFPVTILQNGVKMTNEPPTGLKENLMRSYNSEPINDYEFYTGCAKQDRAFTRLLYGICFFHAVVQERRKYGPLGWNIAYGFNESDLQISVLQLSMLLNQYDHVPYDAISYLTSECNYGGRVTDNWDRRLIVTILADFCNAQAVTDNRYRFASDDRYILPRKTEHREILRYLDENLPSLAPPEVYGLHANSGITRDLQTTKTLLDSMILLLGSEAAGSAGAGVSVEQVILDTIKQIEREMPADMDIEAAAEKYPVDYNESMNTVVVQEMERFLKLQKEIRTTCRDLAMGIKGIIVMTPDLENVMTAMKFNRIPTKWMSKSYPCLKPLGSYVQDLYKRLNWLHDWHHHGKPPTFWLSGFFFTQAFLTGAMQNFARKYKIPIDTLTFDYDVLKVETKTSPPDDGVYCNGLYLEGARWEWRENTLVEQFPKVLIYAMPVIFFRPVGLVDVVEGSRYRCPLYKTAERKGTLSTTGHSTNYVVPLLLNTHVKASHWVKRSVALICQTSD
UniProt Q05547: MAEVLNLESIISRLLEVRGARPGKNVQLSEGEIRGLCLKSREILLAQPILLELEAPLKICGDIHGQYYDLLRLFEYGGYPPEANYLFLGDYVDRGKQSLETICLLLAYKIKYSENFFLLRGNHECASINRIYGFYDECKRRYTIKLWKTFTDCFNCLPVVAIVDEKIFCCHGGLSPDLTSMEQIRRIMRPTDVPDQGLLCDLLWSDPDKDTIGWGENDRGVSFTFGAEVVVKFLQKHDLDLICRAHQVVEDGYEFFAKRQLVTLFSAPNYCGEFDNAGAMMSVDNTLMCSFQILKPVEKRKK

Biological target: Wdr92-mVenus fusion protein (Drosophila melanogaster) (UniProt Q9VVM7)
Assay: affinity purification with mass spectrometry; GFP-Trap_A beads on lysates of adult testes of Wdr92-mVenus or Spag1-mVenus males, 3 h at 4°C; lysis buffer 50 mM Tris-HCl pH 7.5, 100 mM NaCl, 10% glycerol, 5 mM EDTA, 0.15% Triton X-100, 0.5% sodium deoxycholate; control Gap43-mVenus testes; on-bead digest, label-free quantification

Row | Molecule | binding
1 | CG15128 (from UniProt A1ZBP5) | binds
2 | CG10859 (from UniProt Q9VJY4) | binds
3 | CG8407 (from UniProt A1Z8T9) | binds
4 | CG18472 (protein, UniProt Q9VBA1 1-469) MEKEKKKSLLERYNIPIHYLDFAHVEKCTNAREMEKIVQILRSGEEGHYPDLQRCAEEKLKALKPDSKLFRYEEQIKQSTDLDKTELKPILDWTDAIKTKDNALNELKKVKQNLNLPSVRKLSKIDLEKESKTEKPKPAPKATSPSNTKNKEARIKSTDYRKWDKYDPDEEILRMDLNEERDQEQREKIISNHSKSVTTDKLQSERDSLYERLQAQLKNLSQLEKEQFAERHRLRGNESFKAKEYENAIEEYNCSIIYDPENAVHAYNNRAVAHLKLKKYFSAISDCQACLQIDPMNIKAHLRMAEAHNAEGKHLESLNVYKKLLDFEPDNAIAKKAVEKLTSMLGEVAPSSATRLIIEEIDPPQLKTSEPKKEAEKSEPTVVKKPEPVVSAKKPPPIKDYDLAELVKPNRMVKSNLVSAAEALGNKMQASKGGAPKKPQSPPMTPKETLLRLPQDNLNNSNKLLIQEI | binds
5 | CG9313 (protein, UniProt Q8MSJ9 1-739) MATKPGKGDGKQVKGKRTSKNKTDGPGGGGGDADDFDAWMKSRQLLKPDDQLDLTEAELGEEITKVLTPTNTNIVRNLVVYSFKEGEFVPAPLPGNTVTLIAFAGNSLHVDSDEGRRQIEESDEIGYPLPMPNYTVVEQRETDNVDGEEGEGEEDDDGATAKDAAVEDEDVEEEDDEEAKGTEGDEGEGEGEGEGAAARQEDDEPAHQAAAVSSKKRKLINQFNYCERGALTYTNPKRNVDTQTIPPPRSQFGANVLQWVIYDSYMENFAESQKDGTKKEERKRGKREKKFRDKSAIAEQLNKKYLKCWQILERMINQNIYDDIAHDYRYWEDPADEFREGEGNLLPLWKFQYDKTKKMNVTDILFNPSYYDLFAVCFGSHDFMKQTNEGYLCLFTVKNPSFPDYIIQTDCGVMCCDIHPTYPFLAVIGLYDGNVAVYNLREDCKEPLYVSRGVNCKHGECVWQIKWGLDMADGEVNFFSVSSDGRVFNWILMQNKLWVTTIITLYRENGLVDGPDGTKVTLKSGGSCMVFHPVDNKIFLVGTECGYIYKCSTAFSSKYLMTYYAHNMSVYRIDFNRFNSNIFVSCGADWMVKVWEDMRPDPLFIFDLGAAVGDVKWAPYSSTVFAAVTTEGKVHVFDLNVNKYKAICIQAVVPKRKNKLTRLSFNEKLAFIVVGDEKGVTTSLKLSPNLRMMVKPPKKQLYLDQNTLQIGKLEKLLSLVRELPEGSTAVPDAATTVRS | binds
6 | CG3121 (protein, UniProt Q9W1D3 1-708) MDRDSCQNFSLDSTSSSHFAPPPVCAPRRKKPEKPAAEEASPECSNVTSSSSSSTTTISIGAFDSQCNLHNARNPEAPNIGYELNVAKSILQKYSTLSGDNLFDHLSDIIKRVIDERPPNVIDFFEEFSRNVREQKFHLPERFPPSGVFDEVRSFRVAKKILQSMKLPYVVEGEDLMGEDLSVEDLRTNEDMRIVIDDSMRYFVTFNERVQQLQFYWTQCGFSISNDDIFQLASAMNRLQTHPSIMQCRFWGCINGLKASYYIVEASLTREEIASRLVMMEEEMRQKQIPFPMRKDREDKPPPAHIGPELTPGIYGWEEFPPEELEKMKPKAAPVPLVEEMELYDIPPEFIGKGCNRYSYFVVNSLFDDWIELPIVTPRQIVVSRQIKKFLTGDLEADVISYPCFPGKEKHYLRTLIGRITAGTYIAPVGYYRRMTKKEQRMFDGEEEEEGEEEEEEEEEEEFNEGEEEQIEDNDVMLLKNEKYEAEPLGSLATPVAWVHVRSNILNQQGRVVWYDEEKARKEREKALALYLKMQMLGEMEEEVEEEEDEEEGEEEGEEEGMIEGFNQPELGPSILSSCANDMNPEVPVSWLARMTSKYTNQKERMLVMQSNVWPGAYTFIFEKTCESIYLGWGHKYYARNIPFKHLPMVQEEFPHNPEDFVEANDPTVEEEEAYKAWLLRKQQKAEYVAEDIEDYDDDEFADQYDDD | binds
7 | CG5458 (protein, UniProt Q9VK29 1-344) MAMTEMSEEDLSAPEEEEDLGPNIGLYIGGRNAAGQRQGRGWAILPNGDQYDGNYRKGRRHGIGVYVFKDGSRYYGQYRCGKRCGRGIFIYPDGSVYEGNWRKNLKHGKGRYKYVNGDNYSGDWFKGQRHGVGIYHFNSGKDGCCLSVRMKATWNSNMRTGPFELYIGNEDKCTILHGIWDNLYPSGPAVFSFNNRYLLLGYFLPASYNMKAISNEDEMEDAEERLEDEMGEAEPMEPTLWFAQEMAVYDFSLLPQEPVPLAISDSELSVCSLSTEPSMRSEEKISWYGEGEEAEGEEGGEMECFPCECDLTDVSEVETESEVCKIDANPCCIEILKQPECPDP | binds
8 | CG7770 (protein, UniProt Q9VW56 1-125) MDKKSAALYKKMQAEIESYQNLQKSCLKMVKQRAVLESQLNENKCVLDELNLLGPDNKVYKLFGPVLVKQELEESRQNVGKRIEYISKELKSSTDALENMEKDMLKHRESVAKYQQQCQVAAAMQ | binds
9 | CG15863 (protein, UniProt Q4QQ01 1-132) MSQTDLNKSIEIITKTEELADKILVNKQELTVMDKRRQETRQAMRLMEKSEDKKVWITIGSMLVKMEREKALELLKKDQQKIEQQINLIYSDQKVLVNKHRDLEFKSPFSGTHLKPLEKKEFDALKANLPLL | binds

More lines, now with the values ahead:

Row | binding | Molecule
10 | binds | Zipper (from UniProt Q99323 1-2056)
11 | binds | CG34107 (from UniProt Q0KI89)
12 | binds | Spaghetti (from UniProt Q9V3E9)
13 | binds | Dhc62B (from UniProt Q7KVA7 1-3964)
14 | binds | pp1-13C (from UniProt Q05547 1-302)
15 | binds | CG31802 (protein, UniProt Q8T415 1-186) MSGKRLGSMVSSASVMHSSASISSRAKKSKKPKLPTFDLSLSQKVDIKKAFDLFDTQCTGFIETKELRVAIRALGFEPKKEDIKRMMDEIDKDKTGRIAFNDFLYLMRLKMAEKDSNQDMMKAFSFFDDDRTGGISFLNLKRVAKELGEQLTDEELQEMIDEANVSGDGEVSKEEFLNLIKKTNLI
16 | binds | Uri (protein, UniProt Q9W148 1-731) MDRREDALLQALQTNASETERWEAFKRDNESTIRNLDKFAKNLSVEVMVPIGRKALMPGELIHTNELLVGHYEGYFSACSSHKAKEICQYRLKLAEEQLKKLAVENDLWQKKLHTPFAEGAVPSGDQVEIVEDFNEESHNKWLAEHRKRMRQQKQKERLEREAEPVKKDNEVLRKLEEREMMEELGLDPDNIDEDQLHDMLNQEPLKSTNESSPKSLTQEEEDELWKKLEAEEQNEADELSSEAEESLKTTDNLVRQLMSGETETPSSKKRTAGTNRNVEIQDPISEDDGDDDDEGDQEEEVRTIREQMSLLPNEDREPFLRAQLHVLKAKMRKIQKVNFISDELIHLMNVVVMLEDDLQDLVFEQELEASEEEEEVVENNHLPDEPSKELSTVSESSTNKRRISFALDDEKLEFRREETVAEMLPNAKKNSRDIIKLNAPLKPAGDPQPASIKTKRQTTQDILQKVERNIEFVKENQSVQDFDLLNRIMEESTGLINTLHISFTHSGAIPSPSSDQSDGIPGKPSDFYVRYEKDRARPNDSFPIYVNGFEGEEHVKVPIMSEAARGSAYEDPRSQFSKPNSSEICFTHSGSITPTSNDQSDDIPGNPFDFYEKYEKDRAKFSKSNSSEGDATDPESATKSILRNKSAVDLEPHNVNQQPKKGRKVRNQKKKERTLDDDLRDMSAYQKVMHDLVEKEPTAPEPLPPGKFIDSHAPKKRVSRFKEQRALNKT
17 | binds | dtr (protein, UniProt Q8INT5 1-1483) MSNSNRKEITGLNRMTPKGLKELCKKDKLYQTPRLNDVLYLHYQGFQCIESLEEYTELKCLWLECNAISEIQGLEKLSKLKCLFLQNNLITKIENLDPCRELDTLNLSSNHIRKIQNIGTNVLPVLNTLTISSNYLKDSESLSDLIQCKTLSVLDLSNNRIDDILIVKIFEQMLNLKVLVLQGNPVVSRLPQYRKTLILACKELTYLDSRPVFPRDRACAEAWKRDGYEGERKENNRWNRAERRKTRESINCTIRMRNSHRPPDQQDPLLRSSDSEDDTCAETARKKVALENGCVDDLWEEVSGEQPISEDGTNSSSSLEDNDGTSSQDDLIAEKLSNRRTLEGRPTVLYETEVSNVKSANNDINIFEEGVGKASQIIIEDKPVTKIKLINEPSCMNDKSAMNCTSMGPVVKENDFDEDAEIKNVDDMVPCQNLIKSNEDINSEFGFSSKLKQDFDQTCTALRNDAECKEFDEELTIKESESKPFNEMYDIFAAEDDKLNETLDLNLNETTCPHHVHDNFFSEQNKMPSFYEEDIMINLLPKTKEKTLLEKDSIIENEKCAHDLDEMGRQMEEDLAELRQSTQNLIGISIDETARTDSETDEEDLIAQQDPYSPLLKQQFKDRRMKIMLTEETKAQEESLSDRNIALSNESDQDDKQDQLFAKILDDATENIPKRIFGTGCDALSSVWPQEECLLQLTLPENKESPAQEDTFKKSITNSTSFEKANEICVRMDQKMAEEEEALGKLLHDLEGEINNVYDINTKVKYEENTSTNESDAVSICTSLLDDIIVGLTFDEVLCHEKPKSFEFGLIESDEEFSYSFEPKLEKLVPPALEDPARGKSLRECLDTFSDFVSSMADPKLPVMLGRNPTSGVEKIRAAQELLKTKNLSDLYKDTAESLNSQVAKEIEKRKRRVAASATRCFNQRDKYDDTLELVENRLMIVKKDSGDLEELPPPPPLISDTESEDDNPTEDNYTPGNEVHRHGTKTQDSKEHLMSNLLNQNQDDIIEGKKNDSAEDEFYSLEAMTTFGNLDAEFFQKLDLQKVNASEDSEPAINCMRSYNELQAYMKSGSLNTQLNSEEAEMLQTMCSRVASDVDKPKSQNSKEEEEDDLLKKMVLRMKEYEEREHQLQLISHETSSELGPIKLSIGGSKLFEQNTKIPESVLVHSENEPTRNNKPINTKNTNDKESSDIMEKNGDPSVTTSFKTSHKSIDDDIQSDVSTDYESGEEVVVVEPPTLSEAVLKSFYSDEFEADSKMVHELEEATRRNLRRYNPNIMHISTSNHPFSTNNILPTKTSTSELSEGAKAKWAKIAERLHEFLDPETIANLNKEQFGESDECEDSQDDNITDITVEETNLKKDTKLVVLEEYNNTHTCDGNSCPSKLDDSDQFASLKGFEKIKETPTHNMGLSSVMSASQNKTSETLPNEIGNKITDFSSFKTSSTDLINSEGVKTEQIQCNLQILSDEGDVVVEELSVNAQVSSFK
